Assay results: the supplement of paper PMC12823440, “Inhibitors supercharge kinase turnover through native proteolytic circuits” (Nature, 2025)
Counter-ions that a name gives are not always drawn. The list shows a part of the results. Hit calls seldom repeat between salt and free forms of one compound.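 Kinases were expressed as nanoluciferase fusions in K562 cells and luminescence was read every 4 h between 2 and 18 h as percent of control, DMSO set to 100% and a positive control to 0%. A time point counts as decreased when the signal drops significantly (2 sigma). The hit call is the authors' own, does not follow from the count of time points alone, and its rule is not shown.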

Amino acid sequences for entries named in this document (tags omitted). A change or cut given only in a name is not applied to a line headed by its entry.
UniProt P00519, whole entry: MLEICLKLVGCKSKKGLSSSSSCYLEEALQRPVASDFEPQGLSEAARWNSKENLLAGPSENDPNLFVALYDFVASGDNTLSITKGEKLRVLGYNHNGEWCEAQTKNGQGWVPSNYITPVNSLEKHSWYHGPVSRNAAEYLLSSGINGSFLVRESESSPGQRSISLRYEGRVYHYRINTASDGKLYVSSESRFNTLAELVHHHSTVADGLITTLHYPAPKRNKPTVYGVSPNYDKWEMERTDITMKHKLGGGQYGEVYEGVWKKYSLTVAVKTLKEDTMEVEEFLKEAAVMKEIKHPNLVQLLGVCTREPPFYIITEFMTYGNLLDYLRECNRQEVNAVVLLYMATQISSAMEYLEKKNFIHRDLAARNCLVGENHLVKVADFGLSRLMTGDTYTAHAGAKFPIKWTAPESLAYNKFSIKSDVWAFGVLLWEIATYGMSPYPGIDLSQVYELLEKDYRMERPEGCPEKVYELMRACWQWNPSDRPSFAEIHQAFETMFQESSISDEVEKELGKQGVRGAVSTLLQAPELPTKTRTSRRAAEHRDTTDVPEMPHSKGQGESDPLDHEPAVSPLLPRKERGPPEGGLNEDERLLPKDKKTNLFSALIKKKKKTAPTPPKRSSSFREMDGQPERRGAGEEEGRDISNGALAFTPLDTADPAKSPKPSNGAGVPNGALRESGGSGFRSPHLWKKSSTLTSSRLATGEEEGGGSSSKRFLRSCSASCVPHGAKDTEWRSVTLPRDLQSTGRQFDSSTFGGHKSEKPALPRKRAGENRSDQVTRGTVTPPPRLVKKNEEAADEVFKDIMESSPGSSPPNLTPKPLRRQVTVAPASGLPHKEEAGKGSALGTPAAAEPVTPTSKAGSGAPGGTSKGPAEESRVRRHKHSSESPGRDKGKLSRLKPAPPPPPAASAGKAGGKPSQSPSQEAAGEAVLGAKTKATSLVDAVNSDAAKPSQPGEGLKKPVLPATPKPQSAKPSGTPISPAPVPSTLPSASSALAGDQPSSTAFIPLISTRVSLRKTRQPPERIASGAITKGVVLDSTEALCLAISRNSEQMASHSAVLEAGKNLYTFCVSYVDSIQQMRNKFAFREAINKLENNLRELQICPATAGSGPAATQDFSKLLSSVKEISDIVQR
UniProt P31749: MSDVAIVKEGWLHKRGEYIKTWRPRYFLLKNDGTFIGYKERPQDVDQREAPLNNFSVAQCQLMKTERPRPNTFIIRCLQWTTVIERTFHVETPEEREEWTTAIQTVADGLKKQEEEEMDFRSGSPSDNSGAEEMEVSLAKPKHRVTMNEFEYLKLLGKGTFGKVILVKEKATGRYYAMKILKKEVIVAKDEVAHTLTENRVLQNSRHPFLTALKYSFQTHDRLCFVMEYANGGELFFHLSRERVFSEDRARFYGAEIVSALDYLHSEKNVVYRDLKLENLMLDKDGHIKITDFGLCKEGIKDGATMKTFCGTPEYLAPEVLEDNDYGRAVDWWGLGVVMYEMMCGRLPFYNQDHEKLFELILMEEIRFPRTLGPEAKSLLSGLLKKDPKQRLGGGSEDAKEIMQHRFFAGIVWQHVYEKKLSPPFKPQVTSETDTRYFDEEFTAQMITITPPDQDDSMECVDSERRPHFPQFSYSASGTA
UniProt Q96GD4, whole entry: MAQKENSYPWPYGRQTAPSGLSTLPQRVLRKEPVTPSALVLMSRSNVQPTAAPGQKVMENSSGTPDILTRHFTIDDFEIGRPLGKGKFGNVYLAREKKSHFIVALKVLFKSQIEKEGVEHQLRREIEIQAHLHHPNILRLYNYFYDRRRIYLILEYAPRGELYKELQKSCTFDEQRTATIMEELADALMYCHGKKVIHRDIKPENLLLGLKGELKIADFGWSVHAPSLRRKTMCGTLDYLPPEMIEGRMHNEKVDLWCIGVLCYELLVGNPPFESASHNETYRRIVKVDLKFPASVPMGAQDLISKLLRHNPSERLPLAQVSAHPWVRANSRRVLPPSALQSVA
UniProt P51451: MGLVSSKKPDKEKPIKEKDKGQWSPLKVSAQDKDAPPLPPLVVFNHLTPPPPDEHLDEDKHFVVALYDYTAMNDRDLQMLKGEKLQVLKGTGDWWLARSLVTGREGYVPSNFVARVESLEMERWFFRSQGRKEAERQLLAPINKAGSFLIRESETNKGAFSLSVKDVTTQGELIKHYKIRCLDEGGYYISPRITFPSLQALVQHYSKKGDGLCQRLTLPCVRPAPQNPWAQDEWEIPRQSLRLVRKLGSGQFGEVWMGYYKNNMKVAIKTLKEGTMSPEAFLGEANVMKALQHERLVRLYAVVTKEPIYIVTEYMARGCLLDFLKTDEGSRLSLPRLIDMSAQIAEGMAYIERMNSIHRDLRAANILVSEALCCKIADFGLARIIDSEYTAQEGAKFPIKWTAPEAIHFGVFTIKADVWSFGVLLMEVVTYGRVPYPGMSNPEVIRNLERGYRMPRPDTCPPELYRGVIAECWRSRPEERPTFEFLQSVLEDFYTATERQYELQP
UniProt P51813: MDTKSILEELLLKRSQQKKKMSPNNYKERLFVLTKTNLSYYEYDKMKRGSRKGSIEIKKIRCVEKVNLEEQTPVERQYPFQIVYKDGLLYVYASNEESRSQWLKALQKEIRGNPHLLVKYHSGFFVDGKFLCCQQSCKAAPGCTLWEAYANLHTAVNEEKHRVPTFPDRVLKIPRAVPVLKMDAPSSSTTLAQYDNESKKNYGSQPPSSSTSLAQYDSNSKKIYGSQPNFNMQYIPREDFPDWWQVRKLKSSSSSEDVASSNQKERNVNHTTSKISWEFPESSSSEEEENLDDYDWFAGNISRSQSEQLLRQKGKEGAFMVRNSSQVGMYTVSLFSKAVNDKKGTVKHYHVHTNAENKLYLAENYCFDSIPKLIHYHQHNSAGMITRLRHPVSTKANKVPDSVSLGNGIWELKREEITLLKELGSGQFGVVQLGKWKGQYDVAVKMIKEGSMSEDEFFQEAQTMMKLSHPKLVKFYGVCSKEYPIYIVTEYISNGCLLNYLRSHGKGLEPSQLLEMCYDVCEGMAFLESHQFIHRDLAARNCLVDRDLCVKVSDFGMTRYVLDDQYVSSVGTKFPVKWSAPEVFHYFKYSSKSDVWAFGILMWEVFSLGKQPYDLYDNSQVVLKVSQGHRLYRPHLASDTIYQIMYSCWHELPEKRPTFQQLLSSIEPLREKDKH
UniProt P15056, whole entry, looked up: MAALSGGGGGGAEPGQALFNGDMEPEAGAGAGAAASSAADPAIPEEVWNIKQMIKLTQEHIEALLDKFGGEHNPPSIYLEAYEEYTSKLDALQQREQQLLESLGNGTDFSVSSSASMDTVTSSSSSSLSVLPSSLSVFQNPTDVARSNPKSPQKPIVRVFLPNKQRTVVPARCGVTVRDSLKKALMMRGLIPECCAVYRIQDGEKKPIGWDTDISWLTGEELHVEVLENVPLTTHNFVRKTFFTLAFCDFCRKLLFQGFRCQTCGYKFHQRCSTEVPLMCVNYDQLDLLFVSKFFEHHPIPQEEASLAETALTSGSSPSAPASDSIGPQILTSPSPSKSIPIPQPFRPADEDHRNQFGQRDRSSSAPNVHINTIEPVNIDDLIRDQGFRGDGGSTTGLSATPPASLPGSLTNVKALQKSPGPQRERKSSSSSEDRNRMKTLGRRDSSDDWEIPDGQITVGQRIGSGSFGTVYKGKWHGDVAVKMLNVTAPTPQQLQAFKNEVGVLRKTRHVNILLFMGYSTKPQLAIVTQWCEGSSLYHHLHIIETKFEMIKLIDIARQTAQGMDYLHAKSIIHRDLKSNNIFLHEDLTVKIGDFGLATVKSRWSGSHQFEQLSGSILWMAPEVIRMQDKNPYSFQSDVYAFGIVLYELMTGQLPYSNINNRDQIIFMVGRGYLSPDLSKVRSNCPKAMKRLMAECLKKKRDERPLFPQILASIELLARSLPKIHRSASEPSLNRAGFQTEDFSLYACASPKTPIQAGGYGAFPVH
UniProt Q06187: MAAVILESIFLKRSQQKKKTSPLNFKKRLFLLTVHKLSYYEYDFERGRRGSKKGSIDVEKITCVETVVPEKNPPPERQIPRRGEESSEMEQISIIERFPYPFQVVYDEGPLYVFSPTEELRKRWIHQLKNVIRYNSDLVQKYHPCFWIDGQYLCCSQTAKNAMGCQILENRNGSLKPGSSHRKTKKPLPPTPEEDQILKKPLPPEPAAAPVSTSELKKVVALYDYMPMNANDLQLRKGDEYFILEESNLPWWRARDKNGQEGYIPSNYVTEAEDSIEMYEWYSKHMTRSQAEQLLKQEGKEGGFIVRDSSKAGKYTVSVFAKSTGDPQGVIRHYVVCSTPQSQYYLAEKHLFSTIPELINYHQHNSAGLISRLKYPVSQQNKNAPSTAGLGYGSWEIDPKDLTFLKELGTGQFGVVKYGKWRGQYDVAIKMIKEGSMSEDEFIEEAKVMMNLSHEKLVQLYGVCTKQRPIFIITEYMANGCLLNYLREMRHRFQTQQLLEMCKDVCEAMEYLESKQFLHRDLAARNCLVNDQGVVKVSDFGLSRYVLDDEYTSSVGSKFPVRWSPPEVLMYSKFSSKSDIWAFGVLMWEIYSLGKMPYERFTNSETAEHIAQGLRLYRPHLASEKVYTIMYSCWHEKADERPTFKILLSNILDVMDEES
UniProt Q9UQM7, whole entry: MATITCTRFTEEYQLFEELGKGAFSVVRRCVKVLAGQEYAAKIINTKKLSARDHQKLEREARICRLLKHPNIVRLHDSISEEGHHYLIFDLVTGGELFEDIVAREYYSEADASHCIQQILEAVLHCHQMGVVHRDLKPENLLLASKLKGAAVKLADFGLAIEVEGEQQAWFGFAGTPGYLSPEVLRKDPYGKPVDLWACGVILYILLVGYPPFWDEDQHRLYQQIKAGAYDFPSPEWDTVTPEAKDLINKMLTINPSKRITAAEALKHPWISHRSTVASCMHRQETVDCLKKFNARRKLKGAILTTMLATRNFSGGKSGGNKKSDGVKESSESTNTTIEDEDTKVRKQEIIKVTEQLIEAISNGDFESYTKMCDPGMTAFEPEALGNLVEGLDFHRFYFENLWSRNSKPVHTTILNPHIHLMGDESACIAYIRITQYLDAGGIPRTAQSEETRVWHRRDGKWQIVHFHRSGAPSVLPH
UniProt Q15131: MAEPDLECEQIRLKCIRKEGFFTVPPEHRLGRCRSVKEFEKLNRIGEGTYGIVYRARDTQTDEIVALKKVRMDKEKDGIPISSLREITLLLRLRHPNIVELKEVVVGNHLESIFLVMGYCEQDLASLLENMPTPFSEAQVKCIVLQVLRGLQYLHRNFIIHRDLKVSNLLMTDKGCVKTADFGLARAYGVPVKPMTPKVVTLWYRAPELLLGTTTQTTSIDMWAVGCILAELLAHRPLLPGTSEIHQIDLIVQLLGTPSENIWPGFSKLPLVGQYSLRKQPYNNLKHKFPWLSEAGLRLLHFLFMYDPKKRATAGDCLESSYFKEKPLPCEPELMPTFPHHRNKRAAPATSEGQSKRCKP
UniProt P11802: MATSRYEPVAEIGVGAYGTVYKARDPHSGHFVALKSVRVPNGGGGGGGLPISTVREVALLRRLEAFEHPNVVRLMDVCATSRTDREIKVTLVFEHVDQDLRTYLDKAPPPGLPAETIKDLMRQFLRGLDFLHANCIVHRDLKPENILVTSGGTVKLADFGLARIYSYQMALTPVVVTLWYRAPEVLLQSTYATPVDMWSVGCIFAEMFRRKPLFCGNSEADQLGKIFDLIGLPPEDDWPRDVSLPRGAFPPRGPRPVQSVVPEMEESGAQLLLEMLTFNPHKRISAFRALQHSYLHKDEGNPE
UniProt Q00535, whole entry, looked up: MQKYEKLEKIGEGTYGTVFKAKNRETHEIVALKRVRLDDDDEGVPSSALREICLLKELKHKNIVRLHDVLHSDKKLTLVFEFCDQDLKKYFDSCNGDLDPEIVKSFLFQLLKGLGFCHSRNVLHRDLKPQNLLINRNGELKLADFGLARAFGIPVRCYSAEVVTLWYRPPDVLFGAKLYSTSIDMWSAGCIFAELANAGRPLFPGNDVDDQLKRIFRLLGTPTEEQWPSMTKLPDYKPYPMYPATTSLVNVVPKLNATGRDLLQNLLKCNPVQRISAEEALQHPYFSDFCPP
UniProt Q00534, whole entry: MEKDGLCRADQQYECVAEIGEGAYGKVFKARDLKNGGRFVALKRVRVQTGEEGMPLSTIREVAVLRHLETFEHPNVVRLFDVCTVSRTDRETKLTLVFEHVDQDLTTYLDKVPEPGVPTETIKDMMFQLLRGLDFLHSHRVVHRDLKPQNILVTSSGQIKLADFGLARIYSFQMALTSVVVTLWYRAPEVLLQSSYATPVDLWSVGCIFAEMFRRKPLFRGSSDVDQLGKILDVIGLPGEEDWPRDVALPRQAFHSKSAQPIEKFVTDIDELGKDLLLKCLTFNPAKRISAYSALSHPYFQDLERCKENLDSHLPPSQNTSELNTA

Tests used:
Experiment in all cases: kinase-Nluc reporter destabilization hit call (1 = scored as downregulated) (binary); higher = compound decreases kinase abundance
Conditions in all cases: K562; 2-18 h
ABL1 = ABL1 (UniProt P00519)
AKT1 = AKT1 (UniProt P31749)
ALK = ALK (UniProt Q9UM73)
ARAF = ARAF (UniProt P10398)
AURKA = AURKA (UniProt O14965)
AURKB = AURKB (UniProt Q96GD4)
AURKC = AURKC (UniProt Q9UQB9)
BLK = BLK (UniProt P51451)
BMX = BMX (UniProt P51813)
BRAF = BRAF (UniProt P15056)
BRAF_V600E = test system: BRAF_V600E
BTK = BTK (UniProt Q06187)
CAMK2A = CAMK2A (UniProt Q9UQM7)
CAMK2G = CAMK2G (UniProt Q13555)
CDK10 = CDK10 (UniProt Q15131)
CDK2 = CDK2 (UniProt P24941)
CDK3 = CDK3 (UniProt Q00526)
CDK4 = CDK4 (UniProt P11802)
CDK5 = CDK5 (UniProt Q00535)
CDK6 = CDK6 (UniProt Q00534)

Measured: kinase-Nluc reporter destabilization hit call

COc1ccc(OC)c(C2C(C#N)=C(N)Oc3n[nH]c(-c4ccc5ccccc5c4)c32)c1 (stereo not given) (10 µM)
inactive: ABL1 = 0 | AKT1 = 0 | ALK 0 | ARAF 0 | AURKA 0 | AURKB 0 | AURKC 0 | BLK 0 | BMX 0 | BRAF 0 | BRAF_V600E 0 | BTK 0 | CAMK2A 0 | CAMK2G 0 | CDK10 = 0 | CDK2 = 0 | CDK3 = 0 | CDK4 = 0 | CDK5 = 0 | CDK6 = 0

NC(=O)c1nc(Nc2ccccc2)sc1NC(=O)C1CCCCC1 (10 µM)
inactive: ABL1 = 0 | AKT1 = 0 | ALK 0 | ARAF 0 | AURKA 0 | AURKB 0 | AURKC 0 | BLK 0 | BMX 0 | BRAF 0 | BRAF_V600E 0 | BTK 0 | CAMK2A 0 | CAMK2G 0 | CDK10 = 0 | CDK2 = 0 | CDK3 = 0 | CDK4 = 0 | CDK5 = 0 | CDK6 = 0

CN(C)CCCOc1ccc(-c2ccc3ncc4c(c3c2)n(C2CCOCC2)c(=O)n4C)cn1 (2 µM)
inactive: ABL1 = 0 | AKT1 = 0 | ALK 0 | ARAF 0 | AURKA 0 | AURKB 0 | AURKC 0 | BLK 0 | BMX 0 | BRAF 0 | BRAF_V600E 0 | BTK 0 | CAMK2A 0 | CAMK2G 0 | CDK10 = 0 | CDK2 = 0 | CDK3 = 0 | CDK4 = 0 | CDK5 = 0 | CDK6 = 0

C[C@H](c1ccnc(Nc2nc3ccc(-c4cc(N(C)C)ncn4)cc3[nH]2)c1)N1CCN(C(=O)CC(F)(F)F)CC1 (2.5 µM)
inactive: ABL1 = 0 | AKT1 = 0 | ALK 0 | ARAF 0 | AURKA 0 | AURKB 0 | AURKC 0 | BLK 0 | BMX 0 | BRAF 0 | BRAF_V600E 0 | BTK 0 | CAMK2A 0 | CAMK2G 0 | CDK10 = 0 | CDK2 = 0 | CDK3 = 0 | CDK4 = 0 | CDK5 = 0 | CDK6 = 0

COc1cc2ncc(-c3ccccc3)nc2cc1OC [Tyrphostin AG1296] (10 µM)
inactive: ABL1 = 0 | AKT1 = 0 | ALK 0 | ARAF 0 | AURKA 0 | AURKB 0 | AURKC 0 | BLK 0 | BMX 0 | BRAF 0 | BRAF_V600E 0 | BTK 0 | CAMK2A 0 | CAMK2G 0 | CDK10 = 0 | CDK2 = 0 | CDK3 = 0 | CDK4 = 0 | CDK5 = 0 | CDK6 = 0

Cc1ccc(CNc2ncnc3ccc(-c4ccc(CO)o4)cc23)o1 (10 µM)
inactive: ABL1 = 0 | AKT1 = 0 | ALK 0 | ARAF 0 | AURKA 0 | AURKB 0 | AURKC 0 | BLK 0 | BMX 0 | BRAF 0 | BRAF_V600E 0 | BTK 0 | CAMK2A 0 | CAMK2G 0 | CDK10 = 0 | CDK2 = 0 | CDK3 = 0 | CDK4 = 0 | CDK5 = 0 | CDK6 = 0

CN1C(=O)N[C@H](Cc2c[nH]c3c(Cl)cccc23)C1=O [Necrostatin 2] (10 µM)
inactive: ABL1 = 0 | AKT1 = 0 | ALK 0 | ARAF 0 | AURKA 0 | AURKB 0 | AURKC 0 | BLK 0 | BMX 0 | BRAF 0 | BRAF_V600E 0 | BTK 0 | CAMK2A 0 | CAMK2G 0 | CDK10 = 0 | CDK2 = 0 | CDK3 = 0 | CDK4 = 0 | CDK5 = 0 | CDK6 = 0

N#Cc1c(C2CCNCC2)cc(-c2c(O)cccc2OCC2CC2)nc1N [ACHP (Hydrochloride)] (10 µM)
inactive: ABL1 = 0 | AKT1 = 0 | ALK 0 | ARAF 0 | AURKA 0 | AURKB 0 | AURKC 0 | BLK 0 | BMX 0 | BRAF 0 | BRAF_V600E 0 | BTK 0 | CAMK2A 0 | CAMK2G 0 | CDK10 = 0 | CDK2 = 0 | CDK3 = 0 | CDK4 = 0 | CDK5 = 0 | CDK6 = 0

O=C(CSC1=NCCN1)NC1CCCCCC1 [ICCB-19 (hydrochloride)] (2.5 µM)
inactive: ABL1 = 0 | AKT1 = 0 | ALK 0 | ARAF 0 | AURKA 0 | AURKB 0 | AURKC 0 | BLK 0 | BMX 0 | BRAF 0 | BRAF_V600E 0 | BTK 0 | CAMK2A 0 | CAMK2G 0 | CDK10 = 0 | CDK2 = 0 | CDK3 = 0 | CDK4 = 0 | CDK5 = 0 | CDK6 = 0

Cc1cccc(-c2[nH]ncc2-c2ccc(F)c(-c3cnn(CCO)c3)c2)n1 (10 µM)
inactive: ABL1 = 0 | AKT1 = 0 | ALK 0 | ARAF 0 | AURKA 0 | AURKB 0 | AURKC 0 | BLK 0 | BMX 0 | BRAF 0 | BRAF_V600E 0 | BTK 0 | CAMK2A 0 | CAMK2G 0 | CDK10 = 0 | CDK2 = 0 | CDK3 = 0 | CDK4 = 0 | CDK5 = 0 | CDK6 = 0

CN1CCC(c2cc(-c3ccncc3)c(-c3ccc(F)cc3)[nH]2)CC1 (10 µM)
inactive: ABL1 = 0 | AKT1 = 0 | ALK 0 | ARAF 0 | AURKA 0 | AURKB 0 | AURKC 0 | BLK 0 | BMX 0 | BRAF 0 | BRAF_V600E 0 | BTK 0 | CAMK2A 0 | CAMK2G 0 | CDK10 = 0 | CDK2 = 0 | CDK3 = 0 | CDK4 = 0 | CDK5 = 0 | CDK6 = 0

CCC(C)N1c2ccccc2C(=O)N(C)c2cnc(Nc3ccc(C(=O)N4CCC(N5CCN(C)CC5)CC4)cc3OC)nc21 (stereo not given) (2.5 µM)
inactive: ABL1 = 0 | AKT1 = 0 | ALK 0 | ARAF 0 | AURKA 0 | AURKB 0 | AURKC 0 | BLK 0 | BMX 0 | BRAF 0 | BRAF_V600E 0 | BTK 0 | CAMK2A 0 | CAMK2G 0 | CDK10 = 0 | CDK2 = 0 | CDK3 = 0 | CDK4 = 0 | CDK5 = 0 | CDK6 = 0

FC(F)c1nc2ccccc2n1-c1nc(N2CCOCC2)nc(N2CCOCC2)n1 (2 µM)
inactive: ABL1 = 0 | AKT1 = 0 | ALK 0 | ARAF 0 | AURKA 0 | AURKB 0 | AURKC 0 | BLK 0 | BMX 0 | BRAF 0 | BRAF_V600E 0 | BTK 0 | CAMK2A 0 | CAMK2G 0 | CDK10 = 0 | CDK2 = 0 | CDK3 = 0 | CDK4 = 0 | CDK5 = 0 | CDK6 = 0

O=S(=O)(NCCCN1c2ccccc2CCc2ccc(Cl)cc21)c1ccc(OC(F)(F)F)cc1 (2.5 µM)
inactive: ABL1 = 0 | AKT1 = 0 | ALK 0 | ARAF 0 | AURKA 0 | AURKB 0 | AURKC 0 | BLK 0 | BMX 0 | BRAF 0 | BRAF_V600E 0 | BTK 0 | CAMK2A 0 | CAMK2G 0 | CDK10 = 0 | CDK2 = 0 | CDK3 = 0 | CDK4 = 0 | CDK5 = 0 | CDK6 = 0

CCCS(=O)(=O)Nc1ccc(F)c(C(=O)c2c[nH]c3ncc(-c4ccc(Cl)cc4)cc23)c1F [Vemurafenib] (10 µM)
inactive: ABL1 = 0 | AKT1 = 0 | ALK 0 | ARAF 0 | AURKA 0 | AURKB 0 | AURKC 0 | BLK 0 | BMX 0 | BRAF 0 | BRAF_V600E 0 | BTK 0 | CAMK2A 0 | CAMK2G 0 | CDK10 = 0 | CDK2 = 0 | CDK3 = 0 | CDK4 = 0 | CDK5 = 0 | CDK6 = 0

Retrieved by compound from the entries so far (two):
FC(F)c1nc2ccccc2n1-c1nc(N2CCOCC2)nc(N2CCOCC2)n1 (2 µM)
inactive: ABL1 = 0 | AKT1 = 0 | ALK 0 | ARAF 0 | AURKA 0 | AURKB 0 | AURKC 0 | BLK 0 | BMX 0 | BRAF 0 | BRAF_V600E 0 | BTK 0 | CAMK2A 0 | CAMK2G 0 | CDK10 = 0 | CDK2 = 0 | CDK3 = 0 | CDK4 = 0 | CDK5 = 0 | CDK6 = 0

O=S(=O)(NCCCN1c2ccccc2CCc2ccc(Cl)cc21)c1ccc(OC(F)(F)F)cc1 (2.5 µM)
inactive: ABL1 = 0 | AKT1 = 0 | ALK 0 | ARAF 0 | AURKA 0 | AURKB 0 | AURKC 0 | BLK 0 | BMX 0 | BRAF 0 | BRAF_V600E 0 | BTK 0 | CAMK2A 0 | CAMK2G 0 | CDK10 = 0 | CDK2 = 0 | CDK3 = 0 | CDK4 = 0 | CDK5 = 0 | CDK6 = 0

Later entries:

CC1(C)C(O[C@@H]2OC[C@@H](O)[C@H](O)[C@H]2O)CC[C@]23CC24CC[C@]2(C)[C@@H]([C@@]5(C)CC[C@@H](C(C)(C)O)O5)[C@H](O)C[C@@]2(C)C4C[C@@H](O[C@@H]2O[C@H](CO)[C@@H](O)[C@H](O)[C@H]2O)C13 (stereo not given in full) [Astragaloside IV] (10 µM)
inactive: ABL1 = 0 | AKT1 = 0 | ALK 0 | ARAF 0 | AURKA 0 | AURKB 0 | AURKC 0 | BLK 0 | BMX 0 | BRAF 0 | BRAF_V600E 0 | BTK 0 | CAMK2A 0 | CAMK2G 0 | CDK10 = 0 | CDK2 = 0 | CDK3 = 0 | CDK4 = 0 | CDK5 = 0 | CDK6 = 0

N#CCC1CCN(c2nc(Nc3ccc(N4CCC(O)CC4)cc3)c3c(=O)[nH]ncc3n2)CC1 [Gusacitinib] (10 µM)
inactive: ABL1 = 0 | AKT1 = 0 | ALK 0 | ARAF 0 | AURKA 0 | AURKB 0 | AURKC 0 | BLK 0 | BMX 0 | BRAF 0 | BRAF_V600E 0 | BTK 0 | CAMK2A 0 | CAMK2G 0 | CDK10 = 0 | CDK2 = 0 | CDK3 = 0 | CDK4 = 0 | CDK5 = 0 | CDK6 = 0

CN(C)C(=O)Cn1cc(-c2ccc(-c3cncc4ccccc34)cc2)cn1 (10 µM)
inactive: ABL1 = 0 | AKT1 = 0 | ALK 0 | ARAF 0 | AURKA 0 | AURKB 0 | AURKC 0 | BLK 0 | BMX 0 | BRAF 0 | BRAF_V600E 0 | BTK 0 | CAMK2A 0 | CAMK2G 0 | CDK10 = 0 | CDK2 = 0 | CDK3 = 0 | CDK4 = 0 | CDK5 = 0 | CDK6 = 0
